Reference: the supplement of paper PMC5949888
Most values lie at the floor of the assay. Slopes are relative: functional sequences can read slightly below zero.

System: Saccharomyces cerevisiae PS128 hsf1 delta, HSF1(1-493) fusion
Experiment: growth estimate (transactivation domain function in HSF1 fusion, heat-shock survival) (a.u. (slope of normalised read count over time)); higher = stronger growth at 37°C, i.e. more transactivation activity
Conditions: library: random library

Substance	growth estimate
GCNRVYRRRAGDNILRTAVS	< -0.25
PTSRIYSREARPWGYIPQVI	< -0.25
PTQTNTQVGLI	< -0.25
ALGEPSTCRVVAAYFDSCSS	< -0.25
ISTGRRSAPAAG	< -0.25
NAGNTPSGNGRIDWLRALRY	< -0.25
SQNSTILGAAYFCQHVSHVS	< -0.25
VICISYRAGWLLESSSLALG	< -0.25
IFRTRQRIRGTPTQVAFRYL	< -0.25
LPFRRVADRVGGLARREEYG	0.0721
ILERLV	< -0.25
RILSDSYGRHLLAGRAIWWV	< -0.25
AGIYHRLHVYPLIPRMLAGL	-0.246
YCVLEKPIGSPTARASTGEH	< -0.25
RGAPTLNQVSGR	< -0.25
AGKVSPSVTA	< -0.25
SVCFPGACLHRVR	< -0.25
VHCFLLTYKLLSCTTCRDR	< -0.25
LQSVRIDGFTVY	< -0.25
VDVCGCTFRADTLCGRTIWG	< -0.25
RQGPNCEAGSPQESPVSLSQ	-0.231
HRINPCPVQPKKHPRDVPRG	< -0.25
FYQQDSSIAAGRQLIPGMIG	< -0.25
QICSGQGVILRFSYDRTGTT	< -0.25
VFK	< -0.25

Substance	growth estimate
GVHVACAQLQSPFCDSSRHH	< -0.25
GGLGDHTMLIRYIRWICIV	< -0.25
SVNSTLSL	< -0.25
CTISERYGWRSDVIRELHPC	< -0.25
AMNRLQGLVWCPLSVSSHNK	< -0.25
CLLHI	< -0.25
DRTRVLDRGHLNILPECI	< -0.25
VRGGGLLSPSVVTWSLGTST	-0.204
NTILQAAYAQQAHSRCGLLL	< -0.25
CASG	< -0.25
CNRGTPADSFRAYMPMVLCA	< -0.25
GGLLIIRGLSACIRSRCNVE	< -0.25
SVRGGRWDKTSYVIAKWYRM	< -0.25
SNRSLRRTSVLLILPILVST	< -0.25
PHKLRDECNVMNTLWEQTR	< -0.25
QCRVRRVRLRSCPGSRSSVG	< -0.25
EDRGTWGKGAA	< -0.25
RATRGL	< -0.25
PVASLCR	< -0.25
VLTRNDNLLVYGVPHLC	< -0.25
AGSLCVRSQ	< -0.25
ACSAPCTLSAVSCRQLVNSL	0.109
QVLGVGRDYRNHRYTGVKNP	< -0.25
YWGP	< -0.25
PVR	< -0.25

Substance	growth estimate
NAIDRGDKRPRGMGGRDAMA	< -0.25
SKHSLMRT	< -0.25
YDT	< -0.25
RLNSISLSKSRSDGSRLVYG	< -0.25
RSSPWPGIARSHGPIKRS	< -0.25
REGGDP	< -0.25
CRKYRVWSGDHGACGPPRRT	< -0.25
TTNLVR	< -0.25
SVERSAHGIGD	< -0.25
GHRSVAGKAVEALFDQGRGA	< -0.25
LRFTDAGHFQATGSEFFGRL	-0.224
SHCSNPLQYN	< -0.25
SLTVG	< -0.25
VRRKNRGVCHSPA	< -0.25
IPGDRRTLPCGVRGLVACGA	< -0.25
GEATELSLSEHV	< -0.25
ERPGGLPGMSRRRLTV	< -0.25
WVFCSKPIRSLVVEAICHDG	< -0.25
SLNVGKSQTV	< -0.25
FYANWSGCSNK	< -0.25
KQLALGNCYRREWGGATGRG	< -0.25
ALCLVMLNEHRTWSDGQGAE	< -0.25
SVTG	< -0.25
FLSMAGCPAAMCLTIGVSES	< -0.25
RPLDAGPPRTRRRRYPESRH	< -0.25

Given bar-delimited: entries from further up
Substance | growth estimate
GVHVACAQLQSPFCDSSRHH | < -0.25
GGLGDHTMLIRYIRWICIV | < -0.25
SVNSTLSL | < -0.25
CTISERYGWRSDVIRELHPC | < -0.25

(continued)

Substance	growth estimate
SFQEPPRPVNYSN	< -0.25
FEGYENRGSLSSKGVSKGSP	< -0.25
EGLMCTTLRHNESAYLRRGP	< -0.25
GLRAGLVTRYFSLRSTYMSL	< -0.25
RRLLGMPVSAGVSSSPVSA	< -0.25
LSVCGSTGVLTHPTRRA	< -0.25
PQQALMSRVAATGLVPA	< -0.25
SGRYTVTCRSSRTTGGELIS	< -0.25
SRTHVRSHWLVFACVGDSFP	< -0.25
GTVCHYHDQDSSDRVTRSD	< -0.25
ASFRIGHVCGTSLQKRTSKS	< -0.25
TDLQHRLLQGLLLIYRWVVP	< -0.25
YRAPEDAASRAKATFRTYRL	< -0.25
ELGDSCYSGKISGQPLLGLA	< -0.25
VKQSGLSNG	< -0.25
RTCSGTIHRTAASKFA	< -0.25
PVAFRPILY	< -0.25
TSSL	< -0.25
INTKGVRFTSVRQPAESTSS	< -0.25
TTSVSLTCVWAQLSTER	< -0.25
CSEPLSAWRLNFVSTGCLGV	< -0.25
ARHVMACGQATWQGEK	< -0.25
MLLCV	< -0.25
